These results are taken from PubChem BioAssay AID493014 (National Center for Advancing Translational Sciences (NCATS), 2011).

Molecules are shown by their SMILES. This is one part of the list. The main result of the screen is listed elsewhere. These columns were measured beside it and carry no call. Most of these compounds were active or inconclusive in the main read-out, so they are no random draw. Potencies come from curve fits of mixed quality, noted in brackets.

By AC50 is commonly meant the concentration at which the activity in the assay is half-maximal.

The nature of the assay: qHTS Assay to Find Inhibitors of Chronic Active B-Cell Receptor Signaling. To be noted: ABC-DLBCL IkBa-CBG/CBR reporter, luminescence ratio (green luciferase fused to IkBa over red control in TMD8 lymphoma cells), 4 h. A digest of the protocol:
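Concentration-response series (up to 46 uM) were applied to TMD8 dual-reporter cells for 4 h at 37C with doxycycline. Green/red ratio, after filter-overlap correction, defined %Activity; red signal alone was normalised to basal cells and zero luminescence.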

[1] abbreviates: measured here: CBR red luminescence, cell number.
Where [2] appears, read: measured here: IkBa-CBG green luminescence.

In the case of `CCOC(=O)N1CCN(c2ccc(Cl)cc2)CC1`, under setting [1], the AC50 was 14.6 µM [rising, partial curve].

Turning to `Cn1c(=O)[nH]c(=O)c2c1nc(Sc1nc3ccccc3s1)n2Cc1ccccc1`, the AC50 under setting [1] is 29.1 µM [rising, single point].

Take `CCCc1nc2ccccc2c(=O)n1NC(=O)c1c(O)c2cccc3c2n(c1=O)CCC3`: the AC50 under setting [1] is 6.51 µM [falling, partial curve, poor fit].

In the case of `CCN(CC)S(=O)(=O)c1ccc(O)c(NS(=O)(=O)c2ccccc2F)c1`, the AC50 under setting [1] is 29.1 µM [rising, partial curve, poor fit].

As for `CC1C(=O)NN=C1C(=O)N/N=C/c1cccs1` (stereo not given), the AC50 under setting [1] is 11.2 µM [falling, partial curve].

For the compound `CC(=O)c1ccc(NC(=S)NNC(=O)c2ccncc2)cc1`, under setting [1], the AC50 is 1.84 µM [falling, full curve].

As for `CN(C)C(=O)c1cn(-c2ccccc2)nc1-c1cc2ccccc2o1`, under setting [1], the AC50 was 15.8 µM [falling, single point].

In the case of `O=C(CNc1ccc(F)cc1)N/N=C/C1CC=CCC1` (stereo not given), the AC50 under setting [1] was 11.2 µM [falling, partial curve].

As to `O=C(NC1CCCCC1)C1Cc2ccccc2CN1S(=O)(=O)c1ccc(F)cc1` (stereo not given), the AC50 under setting [1] is 23.1 µM [falling, single point].

With `O=C(CSc1nnc(-c2ccccc2)o1)NC1CCCCC1`, the concentration at half-maximal activity (AC50) under setting [1] was 0.00517 µM [falling, full curve, poor fit].

As to `C/C(=N\NC(=O)c1ccccc1Cl)c1ccccn1`, the AC50 under setting [2] is 25.1 µM [falling, single point].

Turning to `CCC(C)(C)C1CCc2nc3ccccc3c(C(=O)OC(C)C(=O)Nc3c(C)n(C)n(-c4ccccc4)c3=O)c2C1` (stereo not given), the AC50 under setting [1] is 5.17 µM [rising, full curve].

`O=C(CC1=NC2(CCCC2)Cc2ccccc21)N1CCOCC1`: under setting [1], the AC50 is 11.2 µM [falling, single point].

For `C/C(=N\NC(=O)c1ccco1)c1ccc(C(=O)O)s1`, the half-maximal activity concentration (AC50) under setting [1] is 10 µM [falling, partial curve, poor fit].

As for `COc1ccc(CN2CCNC(=O)C2CC(=O)N2CCCCO2)c(OC)c1` (stereo not given), the AC50 under setting [1] was 0.708 µM [rising, full curve, poor fit].

Take `O=C(NNC(=O)c1cc2ccccc2oc1=O)c1ccccc1[N+](=O)[O-]`: the AC50 under setting [1] is 2.82 µM [falling, partial curve, poor fit].

With `COc1ccccc1NC(=O)CSc1nnc(C2CCCCC2)n1-c1ccccc1`, the half-maximal activity concentration (AC50) under setting [1] is 10 µM [falling, partial curve, poor fit].

In the case of `CC1CCN(C(=O)COC(=O)c2n[nH]c(=O)c3ccccc23)CC1`, the half-maximal activity concentration (AC50) under setting [1] is 6.51 µM [rising, single point].

For the compound `Cc1nc2ccccc2n1C(=O)c1ccccc1[N+](=O)[O-]`, the concentration at half-maximal activity (AC50) under setting [1] was 0.82 µM [rising, full curve, poor fit].

Turning to `COc1cccc(C(=O)Nc2ccc(NC(=O)C3CC=CCC3C(=O)O)cc2)c1` (stereo not given), the half-maximal activity concentration (AC50) under setting [1] is 6.31 µM [falling, partial curve].

For the compound `Cc1ccn2cc(-c3ccc(O)c(O)c3)nc2c1`, the AC50 under setting [1] was 0.112 µM [rising, full curve, poor fit].

Turning to `Cc1ccc(N2C(=O)C3C(C2=O)C(C(=O)c2ccc(Cl)cc2)N2CCCC32)cc1` (stereo not given), the AC50 under setting [1] is 11.6 µM [falling, partial curve].

Regarding `O=C(Nc1nnc(SCC(=O)N2CCCCC2)s1)C1CCCCC1`, the half-maximal activity concentration (AC50) under setting [1] was 25.9 µM [rising, partial curve, poor fit].

As to `CCOC(=O)c1c(C2COc3ccccc3O2)csc1N` (stereo not given), the half-maximal activity concentration (AC50) under setting [1] is 23.1 µM [falling, partial curve, poor fit].

Take `O=C(O)CCC(=O)Nc1ccc(Cc2ccc(NC(=O)CCC(=O)O)cc2)cc1`: the half-maximal activity concentration (AC50) under setting [1] is 10.3 µM [rising, single point].

Consider `CCCOc1ccc(/C(O)=C2/C(=O)C(=O)N(CCN(C)C)C2c2ccco2)cc1` (stereo not given), for which, under setting [1], the AC50 is 2.91 µM [rising, partial curve, poor fit].

For the compound `Cc1ccc2nc(/C(C#N)=C/c3ccccc3C(=O)O)[nH]c2c1`, under setting [1], the concentration at half-maximal activity (AC50) was 11.2 µM [falling, single point].

On to `COc1ccc(CCNC(=O)C2CCCN(S(=O)(=O)c3cnc[nH]3)C2)cc1OC` (stereo not given), for which the concentration at half-maximal activity (AC50) under setting [1] was 3.26 µM [rising, partial curve, poor fit].

Consider `Cc1ccc(C2=Nc3ccccc3N(C(=O)c3ccccc3)C(C)C2)cc1` (stereo not given), for which the half-maximal activity concentration (AC50) under setting [1] was 25.9 µM [falling, single point].

As to `O=C(Nc1nc2c(ccc3ccccc32)s1)c1ccco1`, under setting [1], the AC50 was 6.31 µM [falling, partial curve, poor fit].

Regarding `Clc1ccc(-c2nnc(Sc3nc4ccccc4o3)c3ccccc23)cc1`, the AC50 under setting [1] was 8.91 µM [rising, partial curve].

Regarding `Cc1cccc(C)c1N(CC(O)Cn1c2ccccc2c2ccccc21)S(C)(=O)=O` (stereo not given), the half-maximal activity concentration (AC50) under setting [1] is 16.4 µM [falling, single point].

For `CC1CCCN(C(=O)c2ccc(OC3CCN(CCc4ccccc4)CC3)cc2)C1` (stereo not given), the AC50 under setting [1] is 35.5 µM [falling, partial curve, poor fit].

As to `COc1cc(CNC(C)(C)CO)cc(Br)c1OCc1ccccc1`, the AC50 under setting [1] is 35.5 µM [falling, single point].

Turning to `CCc1nc(N=Nc2c(O)[nH]c3ccccc23)c2c3c(sc2n1)CCC3`, under setting [1], the AC50 was 0.0146 µM [rising, full curve].

For `Cc1nnc(SCC(=O)Nc2cc(C(C)(C)C)nn2-c2ccccc2)s1`, the half-maximal activity concentration (AC50) under setting [1] was 5.17 µM [rising, single point].

Turning to `N#Cc1c(Cl)nsc1NN`, the half-maximal activity concentration (AC50) under setting [1] is 35.5 µM [falling, single point].

As to `Cc1ccc(-c2ccc(/C=N/N3C(=O)C4C5C=CC(CC5)C4C3=O)o2)c([N+](=O)[O-])c1` (stereo not given), under setting [1], the AC50 was 10.3 µM [rising, partial curve, poor fit].

With `CCOC(=O)CC1C(=O)NCCN1S(=O)(=O)c1cccc(C(F)(F)F)c1` (stereo not given), under setting [1], the AC50 was 0.891 µM [rising, full curve, poor fit].

Regarding `CCc1nnc(NC(=O)c2cccc(C(=O)Nc3nnc(CC)s3)n2)s1`, the half-maximal activity concentration (AC50) under setting [1] is 6.51 µM [falling, single point].

On to `CC1(CC(=O)N/N=C/c2ccc(-c3ccc(C(=O)O)cc3)o2)OCCO1`, for which the concentration at half-maximal activity (AC50) under setting [1] was 22.4 µM [falling, single point].

In the case of `CCN1CCC(=NNC(=O)c2ccco2)CC1`, the AC50 under setting [1] was 23.1 µM [falling, single point].

Regarding `Cc1ccc(S(=O)(=O)Nc2c3ccccc3nc(=O)n2-c2ccccc2)cc1`, under setting [1], the half-maximal activity concentration (AC50) was 7.31 µM [rising, partial curve].

Regarding `O=C(CN(c1ccccc1)S(=O)(=O)c1ccccc1)N/N=C/c1ccc(OC2CSC2)cc1`, under setting [1], the concentration at half-maximal activity (AC50) was 7.31 µM [falling, partial curve, poor fit].

Turning to `CC1CC(C)CN(C(=O)CSc2nc(Cc3cccs3)nc3ccccc23)C1` (stereo not given), the AC50 under setting [1] is 7.31 µM [falling, partial curve].

Turning to `O=C(Nc1ncc([N+](=O)[O-])s1)c1cccc([N+](=O)[O-])c1`, under setting [1], the AC50 is 0.316 µM [falling, full curve].

As for `CCC(C)Nc1nc(C)nc2c1oc1ccccc12` (stereo not given), the concentration at half-maximal activity (AC50) under setting [1] is 1 µM [falling, full curve, poor fit].

With `CN1CCN(c2nc3c(c(=O)[nH]c(=O)n3C)n2CCOc2ccccc2)CC1`, the half-maximal activity concentration (AC50) under setting [1] was 25.9 µM [rising, single point].

For the compound `CCCc1cc(C(=O)Nc2sc(C)c(CC)c2C#N)no1`, the AC50 under setting [1] is 3.66 µM [rising, partial curve].

`Cc1ccnc(NC(=O)CCCOc2ccc(Cl)cc2C)c1`: the concentration at half-maximal activity (AC50) under setting [1] is 0.708 µM [rising, full curve, poor fit].

Turning to `Cc1ccc(/C=N/Nc2nncc(-c3ccccc3)n2)o1`, under setting [1], the AC50 is 17.8 µM [falling, single point].

Consider `O=C(CN(c1cccc(Cl)c1)S(=O)(=O)c1ccc(Cl)cc1)N1CCc2ccccc2C1`, for which the AC50 under setting [1] is 29.1 µM [falling, single point].

Take `CCOC(=O)CC(=O)Nc1ccc(C(=O)OCC)cc1`: the AC50 under setting [1] is 1.3 µM [falling, full curve].

For `Cc1ccc(S(=O)(=O)N2CCCN(S(=O)(=O)c3ccc(C)c(C)c3)CC2)cc1C`, the AC50 under setting [1] is 23.1 µM [falling, partial curve].

In the case of `COc1ccc(-c2nnc3ccc(SCC(=O)Nc4nccs4)nn23)cc1OC`, the AC50 under setting [1] is 6.51 µM [falling, single point].

For the compound `CCCNC(=O)c1nnsc1S(=O)c1ccc(Cl)cc1` (stereo not given), the concentration at half-maximal activity (AC50) is, setting by setting: under setting [1], 2.82 µM [falling, partial curve, poor fit]; under setting [2], 3.98 µM [rising, full curve].

On to `N#CC(C#N)=C1C=CC=CN1/C(=C\c1ccco1)C(=O)c1ccc(Br)cc1`, for which the half-maximal activity concentration (AC50) under setting [1] was 2.59 µM [falling, full curve].

Turning to `COc1ccccc1C1c2[nH]c3ccccc3c2C[C@H]2C(=O)N(C3CCN(Cc4ccccc4)CC3)CC(=O)N12` (stereo not given in full), under setting [1], the AC50 was 10 µM [falling, partial curve, poor fit].

For the compound `Cc1ccccc1-n1nnc2c(=O)oc3ccccc3c21`, the AC50 under setting [1] was 29.1 µM [falling, single point].

For `COC(=O)C1=C(C)N(Cc2ccccc2)C(=NCCc2c[nH]c3ccccc23)N[C@H]1c1ccccc1`, the half-maximal activity concentration (AC50) under setting [1] is 35.5 µM [falling, single point].

Regarding `COc1ccccc1Nc1ccc([N+](=O)[O-])cn1`, the AC50 under setting [1] is 12.6 µM [falling, single point].

As to `COc1ccccc1NC(=O)C(=O)N1CCCC1`, the half-maximal activity concentration (AC50) under setting [1] is 35.5 µM [falling, partial curve, poor fit].

`O=C(O)CC1=C(Nc2ccccc2)C(=O)N(c2ccccc2)C1c1ccc(Br)cc1` (stereo not given): the half-maximal activity concentration (AC50) under setting [1] was 12.6 µM [falling, partial curve, poor fit].

As to `Cc1cccc(C)c1OCc1cc(C(=O)N(C)Cc2cc(C3CC3)n[nH]2)no1`, under setting [1], the AC50 was 35.5 µM [falling, single point].
